Laboratory results reported in patent publication US11292821B2, “Peptides and combination of peptides for use in immunotherapy against lung cancer, including NSCLC, SCLC and other cancers” (Immatics Biotechnologies GmbH, priority 2017, dated 2022).

Test system: tumor tissue samples
Assay: Identification and relative quantitation of HLA-presented tumor associated peptides by LC-MS (presentation profile)
Design: species or system human
Conditions: for Peptide Presentation on cancer entities: cancer entities on which the tumor-associated peptide was found presented (HLA ligandome LC-MS), abbreviations per table footnote; for over-presentation of peptide in cancer tissues compared to normal samples: HLA-A*03 cancer tissues vs HLA-A*03 normal samples (N=12 normal, N=28 tumor), FIGS. 1G-1H

Substance | Peptide Presentation on cancer entities | over-presentation of peptide in cancer tissues compared to normal samples
260 (YPQHPGLNA; listed as Homo sapiens) [compound 260] | BRCA, GBM, GC, NHL | –
402 (DTDSQRLAY; listed as Homo sapiens) [compound 402] | GBM, GC, MEL | –
301 (YMHKLLVL; listed as Homo sapiens) [compound 301] | AML, NHL, OC, PRCA, UEC | –
118 (ALSSVLHSI; listed as Homo sapiens) [compound 118] | AML, BRCA, CRC, GBC, HCC, HNSCC, MEL, NHL, OC, OSCAR, PACA, RCC, UBC | –
277 (MPLFEPRVF; listed as Homo sapiens) [compound 277] | OC, UEC | –
57 (YPSIIQEF; listed as Homo sapiens) [compound 57] | GBM, RCC | –
423 (NLDAVHDITVAY; listed as Homo sapiens) [compound 423] | GC, MEL, PRCA, UEC | –
76 (WYGWHFPEL; listed as Homo sapiens) [compound 76] | AML, GC, HCC, RCC, UEC | –
275 (APHPPLSVV; listed as Homo sapiens) [compound 275] | AML, BRCA, MEL | –
366 (AENLFRAF; listed as Homo sapiens) [compound 366] | GBM, NHL, OC | –
400 (ATDISRQNEY; listed as Homo sapiens) [compound 400] | GBM, GC, NHL, OC | –
139 (ECDMAFHIY; listed as Homo sapiens) [compound 139] | MEL, OC | –
50 (SYPELVKMVW; listed as Homo sapiens) [compound 50] | AML, GC, HCC | –
52 (KYMKIFHKF; listed as Homo sapiens) [compound 52] | OC, UEC | –
102 (SLLEQAIAL; listed as Homo sapiens) [compound 102] | GC, HCC, NHL, OC, UEC | –
66 (IYFRDSSFL; listed as Homo sapiens) [compound 66] | AML, GC, MEL | –
61 (NYAENILTL; listed as Homo sapiens) [compound 61] | AML, GBM, GC, MEL | –
283 (RPHSLSSEL; listed as Homo sapiens) [compound 283] | AML, NHL | –
213 (LNINMTSPMGTK; listed as Homo sapiens) [compound 213] | GBM, GC, MEL, NHL, PACA | –
99 (FLKEKVPGI; listed as Homo sapiens) [compound 99] | CLL, GC, MEL, NHL | –
21 (SYEVRSTF; listed as Homo sapiens) [compound 21] | CCC, OC, PRCA | –
100 (RQYPTPFQL; listed as Homo sapiens) [compound 100] | AML, CLL, CRC, GBM, NHL, OC, RCC | –
182 (TDYHVRVY; listed as Homo sapiens) [compound 182] | GBM, PRCA | –
62 (LYQEILAQL; listed as Homo sapiens) [compound 62] | AML, GBM, GC, HCC, MEL, PRCA, RCC | –
SEQ ID NO.: 202 (KLAELEGALQK; listed as Homo sapiens) | – | over-presentation

Substance | Peptide Presentation on cancer entities | over-presentation of peptide in cancer tissues compared to normal samples
448 (YLDIPNPRY; listed as Homo sapiens) [compound 448] | GBM, MEL, RCC | –
417 (LLEDKHFQSY; listed as Homo sapiens) [compound 417] | GBM, GC, HCC, MEL, NHL, OC, PRCA, UEC | –
485 (SEIEDSTKQVF; listed as Homo sapiens) [compound 485] | MEL, NHL, OC | –
476 (AEEEIMKKI; listed as Homo sapiens) [compound 476] | NHL | –
148 (GTEFTTILY; listed as Homo sapiens) [compound 148] | GC, NHL, OSCAR, PRCA | –
178 (SSDSSTLPKL; listed as Homo sapiens) [compound 178] | GC, OC, PRCA | –
407 (FSDNDKLYLY; listed as Homo sapiens) [compound 407] | GBM, GC, MEL, NHL, PRCA, UEC | –
367 (GEVHPSEMI; listed as Homo sapiens) [compound 367] | UEC | –
152 (HTDSLHLLI; listed as Homo sapiens) [compound 152] | GC, MEL, OC | –
342 (HEFSSPSHL; listed as Homo sapiens) [compound 342] | NHL | –
293 (RPRSALPRLLLP; listed as Homo sapiens) [compound 293] | NHL, UEC | –
105 (SLLTHIPTA; listed as Homo sapiens) [compound 105] | AML, CRC, HNSCC, MEL, OC, OSCAR, RCC, UBC, UEC | –
451 (YSDSLVQKGY; listed as Homo sapiens) [compound 451] | GBM, GC, HCC, OC, PRCA, UEC | –
273 (MPLLWLRGF; listed as Homo sapiens) [compound 273] | UEC | –
101 (FIISDWRFVL; listed as Homo sapiens) [compound 101] | HNSCC | –
128 (FLGTTPTL; listed as Homo sapiens) [compound 128] | AML, CLL, GBM, HNSCC, NHL, OC, UBC, UEC | –
80 (YYSPLRDLL; listed as Homo sapiens) [compound 80] | MEL | –
83 (TYCQNIKEF; listed as Homo sapiens) [compound 83] | AML, OC, PRCA, UEC | –
31 (QYQNVLTLW; listed as Homo sapiens) [compound 31] | GBM, GC, HCC, MEL, NHL, PRCA, RCC, UEC | –
486 (SEDDPILQI; listed as Homo sapiens) [compound 486] | NHL, OC, UEC | –
210 (ATSGVPVYK; listed as Homo sapiens) [compound 210] | UEC | –
256 (SPRVPSIEL; listed as Homo sapiens) [compound 256] | NHL | –
196 (WMFFVINY; listed as Homo sapiens) [compound 196] | UEC | –
179 (STAKSATWTY; listed as Homo sapiens) [compound 179] | PRCA | –
335 (KELEATKQY; listed as Homo sapiens) [compound 335] | MEL, NHL | –

Substance | Peptide Presentation on cancer entities | over-presentation of peptide in cancer tissues compared to normal samples
479 (AEIQPQTQV; listed as Homo sapiens) [compound 479] | UEC | –
278 (HPMIDINGIIVF; listed as Homo sapiens) [compound 278] | UEC | –
437 (STDGKHWWEY; listed as Homo sapiens) [compound 437] | GC, MEL, NHL, PRCA | –
149 (GTEFTTVLY; listed as Homo sapiens) [compound 149] | GC, HNSCC, MEL, OSCAR, PRCA | –
92 (NLRDLLSEV; listed as Homo sapiens) [compound 92] | HCC | –
444 (TTDTVIRSY; listed as Homo sapiens) [compound 444] | GC, MEL, UEC | –
351 (EEVNYINTF; listed as Homo sapiens) [compound 351] | AML, MEL, NHL, OC | –
53 (KYITNLEDL; listed as Homo sapiens) [compound 53] | PRCA | –
422 (MIDVTKSYY; listed as Homo sapiens) [compound 422] | GBM, GC, MEL, NHL, OC, OSCAR, PRCA, UEC | –
398 (ASEQQALHTVQY; listed as Homo sapiens) [compound 398] | GBM, GC, MEL, NHL, PRCA, UEC | –
214 (RTMSEAALVRK; listed as Homo sapiens) [compound 214] | GC, NHL, OC, PRCA, UEC | –
215 (MMFSGPQILKL; listed as Homo sapiens) [compound 215] | MEL | –
414 (KTDESLTKY; listed as Homo sapiens) [compound 414] | GC, NHL, PRCA | –
121 (ALVDTLTGI; listed as Homo sapiens) [compound 121] | HNSCC, NHL, UEC | –
454 (KVYTPSISK; listed as Homo sapiens) [compound 454] | GBM, HCC, MEL, UEC | –
409 (FVDPLVTNY; listed as Homo sapiens) [compound 409] | GBM, GC, HCC, MEL, NHL, OC, OSCAR, PRCA, RCC | –
34 (MQPRMFFLF; listed as Homo sapiens) [compound 34] | AML, GBM, HCC, MEL, UEC | –
354 (TEDPTILRI; listed as Homo sapiens) [compound 354] | GC, HCC, OC, PRCA, UEC | –
356 (EEGRVYLF; listed as Homo sapiens) [compound 356] | GBM, PRCA | –
204 (AVFDKFIRY; listed as Homo sapiens) [compound 204] | GBM | –
SEQ ID NO.: 457 (SINKPTSER; listed as Homo sapiens) | – | over-presentation
51 (KYALLLQEL; listed as Homo sapiens) [compound 51] | AML, CLL, GBM, GC, HCC, MEL, OC, PRCA, RCC, UEC | –
288 (FPQKFIDLL; listed as Homo sapiens) [compound 288] | UEC | –
418 (LSDPSGPKSY; listed as Homo sapiens) [compound 418] | GBM, HCC, PRCA | –
162 (LVDNSIRELQY; listed as Homo sapiens) [compound 162] | GC, HCC, MEL, NHL, OC, UEC | –
